Test results as given in publication PMC10963788.
These are yes or no findings as the source states them, for the method shown. For some assays here: A result given as binding can be weak or reduced; the word gives no strength. Where a sequence is shown, tags or fusion partners need not be part of it.

The chains behind the UniProt entries cited, without tags or fusion partners. Where a name states a change or a piece, a line headed by the entry shows the natural chain unless it says otherwise.
UniProt O75396: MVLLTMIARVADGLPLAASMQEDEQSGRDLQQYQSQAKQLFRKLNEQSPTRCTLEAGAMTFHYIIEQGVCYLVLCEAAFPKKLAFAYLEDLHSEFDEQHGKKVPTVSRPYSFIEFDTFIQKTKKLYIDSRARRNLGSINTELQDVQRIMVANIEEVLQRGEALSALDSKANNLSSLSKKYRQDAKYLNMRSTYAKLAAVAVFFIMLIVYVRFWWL
UniProt Q13277: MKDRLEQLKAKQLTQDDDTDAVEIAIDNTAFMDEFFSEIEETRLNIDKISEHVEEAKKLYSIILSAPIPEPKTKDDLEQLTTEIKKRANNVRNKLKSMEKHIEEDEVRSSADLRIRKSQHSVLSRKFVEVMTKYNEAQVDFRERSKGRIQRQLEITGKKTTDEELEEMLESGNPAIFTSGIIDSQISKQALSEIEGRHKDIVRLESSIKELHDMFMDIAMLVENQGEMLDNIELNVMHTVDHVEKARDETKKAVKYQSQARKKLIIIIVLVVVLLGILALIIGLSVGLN

Experiments:
Flag-FKBP51-His = biological target: T1, Flag-FKBP51-His (UniProt Q13451); assay: pull-down; 200 ng Flag-FKBP51-His as bait on BSA-blocked antibody-conjugated protein G Dynabeads; 100 ng SEC22B-HIS; 400 μl binding buffer (Promega, V870B); eluted at room temperature and at 95 °C; both purified
T1 sequence: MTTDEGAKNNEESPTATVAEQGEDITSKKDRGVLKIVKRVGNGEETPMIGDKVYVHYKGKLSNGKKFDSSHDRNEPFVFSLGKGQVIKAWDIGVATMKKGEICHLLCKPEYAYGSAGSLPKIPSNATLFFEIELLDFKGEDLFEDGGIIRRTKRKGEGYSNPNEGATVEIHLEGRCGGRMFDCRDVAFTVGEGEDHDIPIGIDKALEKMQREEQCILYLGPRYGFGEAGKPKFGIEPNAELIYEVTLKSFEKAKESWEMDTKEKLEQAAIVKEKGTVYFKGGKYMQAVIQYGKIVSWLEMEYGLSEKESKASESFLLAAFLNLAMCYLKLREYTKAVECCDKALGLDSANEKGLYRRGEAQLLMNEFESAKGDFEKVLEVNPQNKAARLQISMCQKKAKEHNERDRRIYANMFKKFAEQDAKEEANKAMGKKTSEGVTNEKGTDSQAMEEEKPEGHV

[1] = biological target: T2, HIS-SKA2 (Abcam, AB199577-1001) (UniProt Q8WVK7); assay: pull-down; HIS pull-down: 200 ng HIS-SKA2 immobilised on BSA-blocked anti-His protein G Dynabeads; 100 ng purified DDK-tagged protein; 400 μl binding buffer (Promega, V870B); eluted at room temperature and at 95 °C; western blot against HIS and FLAG; both purified
T2 sequence: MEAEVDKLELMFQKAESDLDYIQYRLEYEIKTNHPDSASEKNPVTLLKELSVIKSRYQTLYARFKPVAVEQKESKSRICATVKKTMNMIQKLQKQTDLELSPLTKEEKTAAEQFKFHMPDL

Substance | binding (Flag-FKBP51-His) | binding [1]
SEC22B-HIS (Origene, AR50533PU-S) (from UniProt O75396) | binds | –
Syntaxin3-DDK (Origene, TP300658) (from UniProt Q13277) | – | no binding (tested: 100 ng in 400 μl)
